Earlier results in patent US4837353A, “Dopamine-β-hydroxylase inhibitors” (SmithKline Beckman Corporation, priority 1988, dated 1989).
For at least one compound, name, drawing or mass did not settle the structure.

Molecular target: T1, DBH (Homo sapiens, UniProt P09172)
T1 sequence (P09172 1-617): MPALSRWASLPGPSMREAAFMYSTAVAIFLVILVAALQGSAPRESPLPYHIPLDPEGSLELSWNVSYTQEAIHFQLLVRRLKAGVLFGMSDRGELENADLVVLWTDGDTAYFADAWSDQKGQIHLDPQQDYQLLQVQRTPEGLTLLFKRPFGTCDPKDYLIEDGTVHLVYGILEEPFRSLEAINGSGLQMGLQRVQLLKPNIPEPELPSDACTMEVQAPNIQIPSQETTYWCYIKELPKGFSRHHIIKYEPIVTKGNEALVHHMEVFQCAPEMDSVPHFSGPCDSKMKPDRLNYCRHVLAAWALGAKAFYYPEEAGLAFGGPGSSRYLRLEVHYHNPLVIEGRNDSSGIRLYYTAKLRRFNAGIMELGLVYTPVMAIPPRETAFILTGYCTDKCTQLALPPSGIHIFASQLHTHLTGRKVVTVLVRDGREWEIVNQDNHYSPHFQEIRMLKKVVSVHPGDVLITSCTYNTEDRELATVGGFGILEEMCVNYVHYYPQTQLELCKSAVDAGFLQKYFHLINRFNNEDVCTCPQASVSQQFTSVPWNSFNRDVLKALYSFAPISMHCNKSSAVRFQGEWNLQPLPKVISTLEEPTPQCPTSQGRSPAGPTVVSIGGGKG
Settings: Runti et al.; cited from earlier work

For `O=C(O)c1ccc(-c2ccccc2)cn1` [phenylpicolinic acid], the “DBH inhibitory activity relative to fusaric acid” value is listed as “twice the inhibitory activity of fusaric acid”.
